Among the data in patent US20130236458A1 (AbbVie / Abbott, published 2013) are binding values, retold here.

Amino acid sequences for entries named in this document (tags omitted). Residues count along the entry.
UniProt P35225, residues 35-146: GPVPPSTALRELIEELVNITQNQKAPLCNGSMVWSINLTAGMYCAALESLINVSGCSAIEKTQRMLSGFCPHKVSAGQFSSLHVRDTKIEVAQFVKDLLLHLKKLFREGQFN

No constants are given. Whether binding was seen depends on the method and setting. Some binding calls cover weakened binding; strength is not graded here.

Test [1] concerns the target Recombinant Human IL-13 (human, UniProt P35225 35-146, limits assumed). Description: SPR (Biacore). As for the experimental part: (§1) The BIACORE assay (Biacore, Inc, Piscataway, N.J.) determined the affinity of antibodies or DVD-Ig with kinetic measurements of on-rate and off-rate constants. Binding of antibodies or DVD-Ig proteins to a target antigen (for example, a purified recombinant target antigen) was determined by surface plasmon resonance-based measurements with a Biacore®1000 or 3000 instrument (Biacore® AB, Uppsala, Sweden) using running HBS-EP (10 mM HEPES [pH 7.4], 150 mM NaCl, 3 mM EDTA, and 0.005% surfactant P20) at 25° C. All chemicals were obtained from Biacore® AB (Uppsala, Sweden) or otherwise from a different source as described in the text. For example, approximately 5000 RU of goat anti-mouse IgG, (Fcγ), fragment specific polyclonal antibody (Pierce Biotechnology Inc, Rockford, Ill.) diluted in 10 mM sodium acetate (pH 4.5) was directly immobilized across a CM5 research grade biosensor chip using a standard amine coupling kit according to manufacturer's instructions and procedures at 25 μg/ml. Unreacted moieties on the biosensor surface were blocked with ethanolamine. Modified carboxymethyl dextran surface in flowcell 2 and 4 was used as a reaction surface. Unmodified carboxymethyl dextran without goat anti-mouse IgG in flow cell 1 and 3 was used as the reference surface. For kinetic analysis, rate equations derived from the 1:1 Langmuir binding model were fitted simultaneously to association and dissociation phases of all eight injections (using global fit analysis) with the use of Biaevaluation 4.0.1 software. Purified antibodies or DVD-Ig proteins were diluted in HEPES-buffered saline for capture across goat anti-mouse IgG specific reaction surfaces. Antibodies or DVD-Ig proteins to be captured as a ligand (25 μg/ml) were injected over reaction matrices at a flow rate of 5 μl/minute. The association and dissociation rate constants, kₒₙ (M⁻¹s⁻¹) and koff (s⁻¹) were determined under a continuous flow rate of 25 μl/minute. Rate constants were derived by making kinetic binding measurements at different antigen concentrations ranging from 10-200 nM. The equilibrium dissociation constant (M) of the reaction between antibodies or DVD-Ig proteins and the target antigen was then calculated from the kinetic rate constants by the following formula: KD=koff/kₒₙ. Binding was recorded as a function of time and kinetic rate constants were calculated.

Test [2] has as its target T1, Recombinant Human IL-17 (human, UniProt Q16552 20-155, limits assumed).
T1 sequence (looked up): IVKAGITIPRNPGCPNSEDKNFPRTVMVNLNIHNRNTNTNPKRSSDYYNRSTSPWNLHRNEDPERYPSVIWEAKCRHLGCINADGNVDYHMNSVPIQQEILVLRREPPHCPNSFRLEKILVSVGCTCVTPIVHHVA
Description: SPR (Biacore). Here is the method:
as §1
A general note: In SPR one partner is held on a chip, and binding of the other changes the refractive index at the surface.

B1: DVD2193 (bispecific antibody)
VH: EVQLVQSGAEVKKPGSSVKVSCKASGGSFGGYGIGWVRQAPGQGLEWMGGITPFFGFADYAQKFQGRVTITADESTTTAYMELSGLTSDDTAVYYCARDPNEFWNGYYSTHDFDSWGQGTTVTVSSASTKGPEVQLVQSGAEVKKPGASVKVSCKASGYTFTSYWMHWVRQAPGQGLEWIGNINPKGGSNIYNEKFQGRVTMTRDTSISTAYMELSRLRSDDTAVYYCARLDYFGDSFDLWGQGTTVTVSS
VL: EIVLTQSPDFQSVTPKEKVTITCRASQDIGSELHWYQQKPDQPPKLLIKYASHSTSGVPSRFSGSGSGTDFTLTINGLEAEDAGTYYCHQTDSLPYTFGPGTKVDIKRTVAAPSVFIFPPDIQMTQSPSSLSASVGDRVTITCRASQGIRNYLNWYQQKPGKAPKLLIYYASNLEVGVPSRFSGSGSGTDYTLTISSLQPEDFATYYCQQDNRFPYTFGGGTKVEIKR
notes: DVD-Ig; also called DVD2193H; DVD2193L
Turning to B1, in test [1], the binding result is given as “binds”.

B2: DVD2166 (bispecific antibody)
VH: EVQLVQSGAEVKKPGASVKVSCKASGYTFTTYGVSWVRQAPGQGLEWMGEIYPGNYNTYYNEKFRGRVTMTTDTSTSTAYMELRSLRSDDTAVYYCARWRTSYFSDYGYFDYWGQGTTVTVSSASTKGPEVQLVQSGAEVKKPGSSVKVSCKASGYTFTDYEIHWVRQAPGQGLEWMGVNDPESGGTFYNQKFDGRVTLTADESTSTAYMELSSLRSEDTAVYYCTRYSKWDSFDGMDYWGQGTTVTVSS
VL: DVVMTQSPLSLPVTLGQPASISCRSSQSLVHSHGNTYLHWYQQRPGQSPRLLIYTVSNRFSGVPDRFSGSGSGTDFTLKISRVEAEDVGVYYCSQSTHVPYTFGGGTKVEIKRTVAAPDIQMTQSPSSLSASVGDRVTITCRASSGIISYIDWFQQKPGKAPKRLIYATFDLASGVPSRFSGSGSGTDYTLTISSLQPEDFATYYCRQVGSYPETFGQGTKLEIKR
notes: DVD-Ig; also called DVD2166H; DVD2166L
As to B2, the binding result in test [1] and in test [2] was “binds” throughout.

B3: DVD2168 (bispecific antibody)
VH: B2 VH
VL: DVVMTQSPLSLPVTLGQPASISCRSSQSLVHSHGNTYLHWYQQRPGQSPRLLIYTVSNRFSGVPDRFSGSGSGTDFTLKISRVEAEDVGVYYCSQSTHVPYTFGGGTKVEIKRTVAAPSVFIFPPDIQMTQSPSSLSASVGDRVTITCRASSGIISYIDWFQQKPGKAPKRLIYATFDLASGVPSRFSGSGSGTDYTLTISSLQPEDFATYYCRQVGSYPETFGQGTKLEIKR
notes: DVD-Ig; also called DVD2168H; DVD2168L
Turning to B3, the binding result in test [1] and in test [2] was “binds” each time.

B4: DVD2164 (bispecific antibody)
VH: EVTLRESGPGLVKPTQTLTLTCTLYGFSLSTSDMGVDWIRQPPGKGLEWLAHIWWDDVKRYNPALKSRLTISKDTSKNQVVLKLTSVDPVDTATYYCARTVSSGYIYYAMDYWGQGTLVTVSSASTKGPSVFPLAPEVQLVQSGAEVKKPGESVKISCKASGGSFRSYGISWVRQAPGQGLEWMGGITHFFGITDYAQKFQGRVTITADESTTTAYMELSGLTSDDTAVYYCAREPNDFWNGYYDTHDFDSWGQGTTVTVSS
VL: DIQMTQSPSSLSASVGDRVTISCRASQDIRNYLNWYQQKPGKAPKLLIFYTSKLHSGVPSRFSGSGSGTDYTLTISSLQPEDIATYYCQQGLTPPLTFGGGTKVEIKRTVAAPEIVLTQSPDFQSVTPKEKVTITCRASQNIGSELHWYQQKPDQSPKLLIKYASHSISGVPSRFSGSGSGTDFTLTINGLEAEDAATYYCHQSDTLPHTFGQGTKVDIKR
notes: DVD-Ig; also called DVD2164H; DVD2164L
As to B4, the binding result in test [2] is “binds”.

B5: DVD2167 (bispecific antibody)
VH: EVQLVQSGAEVKKPGSSVKVSCKASGYTFTDYEIHWVRQAPGQGLEWMGVNDPESGGTFYNQKFDGRVTLTADESTSTAYMELSSLRSEDTAVYYCTRYSKWDSFDGMDYWGQGTTVTVSSASTKGPEVQLVQSGAEVKKPGASVKVSCKASGYTFTTYGVSWVRQAPGQGLEWMGEIYPGNYNTYYNEKFRGRVTMTTDTSTSTAYMELRSLRSDDTAVYYCARWRTSYFSDYGYFDYWGQGTTVTVSS
VL: DIQMTQSPSSLSASVGDRVTITCRASSGIISYIDWFQQKPGKAPKRLIYATFDLASGVPSRFSGSGSGTDYTLTISSLQPEDFATYYCRQVGSYPETFGQGTKLEIKRTVAAPDVVMTQSPLSLPVTLGQPASISCRSSQSLVHSHGNTYLHWYQQRPGQSPRLLIYTVSNRFSGVPDRFSGSGSGTDFTLKISRVEAEDVGVYYCSQSTHVPYTFGGGTKVEIKR
notes: DVD-Ig; also called DVD2167H; DVD2167L
For B5, the binding result in test [1] and in test [2] was “binds” throughout.

B6: DVD2161 (bispecific antibody)
VH: EVQLVQSGAEVKKPGESVKISCKASGGSFRSYGISWVRQAPGQGLEWMGGITHFFGITDYAQKFQGRVTITADESTTTAYMELSGLTSDDTAVYYCAREPNDFWNGYYDTHDFDSWGQGTTVTVSSASTKGPEVTLRESGPGLVKPTQTLTLTCTLYGFSLSTSDMGVDWIRQPPGKGLEWLAHIWWDDVKRYNPALKSRLTISKDTSKNQVVLKLTSVDPVDTATYYCARTVSSGYIYYAMDYWGQGTLVTVSS
VL: EIVLTQSPDFQSVTPKEKVTITCRASQNIGSELHWYQQKPDQSPKLLIKYASHSISGVPSRFSGSGSGTDFTLTINGLEAEDAATYYCHQSDTLPHTFGQGTKVDIKRTVAAPDIQMTQSPSSLSASVGDRVTISCRASQDIRNYLNWYQQKPGKAPKLLIFYTSKLHSGVPSRFSGSGSGTDYTLTISSLQPEDIATYYCQQGLTPPLTFGGGTKVEIKR
notes: DVD-Ig; also called DVD2161H; DVD2161L
As for B6, in test [2], the binding result is recorded as “binds”.

B7: DVD2165 (bispecific antibody)
VH: EVQLVQSGAEVKKPGESVKISCKASGGSFRSYGISWVRQAPGQGLEWMGGITHFFGITDYAQKFQGRVTITADESTTTAYMELSGLTSDDTAVYYCAREPNDFWNGYYDTHDFDSWGQGTTVTVSSASTKGPSVFPLAPEVTLRESGPGLVKPTQTLTLTCTLYGFSLSTSDMGVDWIRQPPGKGLEWLAHIWWDDVKRYNPALKSRLTISKDTSKNQVVLKLTSVDPVDTATYYCARTVSSGYIYYAMDYWGQGTLVTVSS
VL: B6 VL
notes: DVD-Ig; also called DVD2165H; DVD2165L
Turning to B7, in test [2], the binding result is “binds”.

B8: DVD2195 (bispecific antibody)
VH: EVQLVQSGAEVKKPGSSVKVSCKASGGSFGGYGIGWVRQAPGQGLEWMGGITPFFGFADYAQKFQGRVTITADESTTTAYMELSGLTSDDTAVYYCARDPNEFWNGYYSTHDFDSWGQGTTVTVSSASTKGPSVFPLAPEVQLVQSGAEVKKPGASVKVSCKASGYTFTSYWMHWVRQAPGQGLEWIGNINPKGGSNIYNEKFQGRVTMTRDTSISTAYMELSRLRSDDTAVYYCARLDYFGDSFDLWGQGTTVTVSS
VL: EIVLTQSPDFQSVTPKEKVTITCRASQDIGSELHWYQQKPDQPPKLLIKYASHSTSGVPSRFSGSGSGTDFTLTINGLEAEDAGTYYCHQTDSLPYTFGPGTKVDIKRTVAAPDIQMTQSPSSLSASVGDRVTITCRASQGIRNYLNWYQQKPGKAPKLLIYYASNLEVGVPSRFSGSGSGTDYTLTISSLQPEDFATYYCQQDNRFPYTFGGGTKVEIKR
notes: DVD-Ig; also called DVD2195H; DVD2195L
B8: the binding entry in test [1] is on record as “binds”.
